Laboratory results taken from PubChem BioAssay AID300 (DTP/NCI, 2004).
The list does not hold the whole screen: it is rich in T/C values a quarter to a half above the control, in often repeated tests (any T/C) and in doses without a T/C. Other doses and runs of a compound stand elsewhere. T/C: endpoint of the treated group in % of that of the vehicle group. Some doses have a count of surviving animals in place of a T/C: the source files T/C as zero there, which appears to mark a toxic dose or a test without result, not a measured value. Some survivor counts are full or nearly so, which does not show that the dose was tolerated: survival well below the control is almost never listed, so the zero probably covers shortened survival too. Counts of survivors are from the toxicity check (mostly the fifth day) where no day follows; animals may have died later. Schedule codes are those of the source, read here as Q, the interval in days (D) or hours (H), X, the number of doses. For survival time, this PubChem deposit counts one and a half times the control or more as active, and values a quarter to a half above the control carry no call in these data; other NCI protocols may use other cut-offs.

System: Madison 109 lung carcinoma i.m., mice, median survival
Test: NCI In Vivo Anticancer Drug Screen. Data for tumor model Madison 109 Lung Carcinoma (intramuscular) in unknown mice
Details: T/C endpoint: median survival time, higher T/C = longer survival
Method: The antitumor activity of compounds was measured in mice bearing transplantable tumors. Survival or tumor size were measured and the results are expressed as the measurement made in the treated group (T) divided by the measurement made in the vehicle treated control group (C). The tumor model used in this assay is Madison 109 Lung Carcinoma (intramuscular) in unknown mice

[1] = dose: 39.0 mg/kg/injection, schedule: Q01DX001 (ip), vehicle: saline
[2] = dose: 10.5 mg/kg/injection, schedule: Q01DX005 (ip), vehicle: water, evaluated on day 5
[3] = dose: 10.5 mg/kg/injection, schedule: Q01DX005 (ip), vehicle: water, evaluated on day 75
[4] = dose: 100.0 mg/kg/injection, schedule: Q01DX009 (ip), vehicle: water
[5] = dose: 200.0 mg/kg/injection, schedule: Q01DX009 (ip), vehicle: water
[6] = dose: 400.0 mg/kg/injection, schedule: Q01DX009 (ip), vehicle: water

`O=CC(NC(=O)N(CCCl)N=O)C(O)C(O)C(O)CO` (centres undefined) was tested, and the survivor count [1] was 8 of 8.
`Cc1c2ccncc2c(C)c2c1[nH]c1ccccc12` was tested, and the survivor count (dose: 32.0 mg/kg/injection, schedule: Q01DX009 (ip), vehicle: other) was 7 of 8.
In the case of `COc1cccc2c1C(=O)c1c(O)c3c(c(O)c1C2=O)C[C@@](O)(C(=O)CO)C[C@@H]3OC1CC(N)C(O)C(C)O1` (some centres undefined), the T/C (dose: 1.5 mg/kg/injection, schedule: Q01DX005 (ip), vehicle: water, evaluated on day 5) is reported as 129 % of control, the T/C (dose: 1.5 mg/kg/injection, schedule: Q01DX005 (ip), vehicle: water, evaluated on day 75) is reported as 129 % of control and the survivor count (dose: 2.5 mg/kg/injection, schedule: Q01DX005 (ip), vehicle: water) is reported as 6 of 6. The survivor count (dose: 5.0 mg/kg/injection, schedule: Q04DX003 (ip), vehicle: water) was 8 of 8.
In the case of `COc1cccc2c1C(=O)c1c(O)c3c(c(O)c1C2=O)CC(O)(C(C)=O)CC3OC1CC(N)C(O)C(C)O1` (centres undefined), the T/C [2] is reported as 129 % of control, the T/C [3] is reported as 129 % of control and the survivor count (dose: 24.0 mg/kg/injection, schedule: Q01DX005 (ip), vehicle: water) is reported as 6 of 6. The survivor count (dose: 27.5 mg/kg/injection, schedule: Q01DX005 (ip), vehicle: water) was 6 of 6.
In the case of `c1ccc([C@H]2CN3CCSC3=N2)cc1`, the survivor count (dose: 12.0 mg/kg/injection, schedule: Q01DX009 (ip), vehicle: water) is reported as 8 of 8.
In the case of `CSCS(=O)C[C@H](CO)NC(=O)/C=C/c1c(C)[nH]c(=O)[nH]c1=O` (some centres undefined), the survivor count (dose: 0.4 mg/kg/injection, schedule: Q01DX009 (ip), vehicle: water) is reported as 8 of 8.
For `COC1=C(N)C(=O)c2nc(-c3nc(C(=O)O)c(C)c(-c4ccc(OC)c(OC)c4O)c3N)ccc2C1=O`, the T/C (dose: 40.0 micrograms/kg/injection, schedule: Q01DX009 (ip), vehicle: other) was 133 % of control.
For `O=S(=O)(n1ccnc1)C(F)(F)F`, the survivor count (dose: 23.0 mg/kg/injection, schedule: Q01DX001 (ip), vehicle: saline) was 8 of 8 and the survivor count [1] was 8 of 8.
With `CO[C@H](C(=O)[C@@H](O)[C@@H](C)O)[C@@H]1Cc2cc3cc(OC4CC(OC5CC(O)C(O)C(C)O5)C(O)C(C)O4)c(C)c(O)c3c(O)c2C(=O)[C@H]1OC1CC(OC2CC(OC3CC(C)(O)C(O)C(C)O3)C(O)C(C)O2)C(O)C(C)O1` (some centres undefined) the survivor count (dose: 0.2 mg/kg/injection, schedule: Q01DX009 (ip), vehicle: water) was 8 of 8 and the survivor count (dose: 0.6 mg/kg/injection, schedule: Q01DX009 (ip), vehicle: water) was 6 of 8.
With `O=[N+]([O-])c1ccc(Cl)cc1[N+](=O)[O-]` the T/C (dose: 40.0 mg/kg/injection, schedule: Q02DX009 (ip), vehicle: water) was 133 % of control and the T/C (dose: 160.0 mg/kg/injection, schedule: Q02DX009 (ip), vehicle: water) was 138 % of control.
For `COc1cccc2c1C(=O)c1c(O)c3c(c(O)c1C2=O)CC(O)(C(=O)CO)CC3OC1CC(N)C(O)C(C)O1` (centres undefined), the T/C (dose: 8.0 mg/kg/injection, schedule: Q01DX005 (ip), vehicle: water, evaluated on day 5) was 126 % of control, the T/C (dose: 8.0 mg/kg/injection, schedule: Q01DX005 (ip), vehicle: water, evaluated on day 75) was 126 % of control and the T/C [2] was 130 % of control. For the same compound, the T/C [3] was 130 % of control, the T/C (dose: 16.5 mg/kg/injection, schedule: Q01DX005 (ip), vehicle: water, evaluated on day 5) was 132 % of control and the T/C (dose: 16.5 mg/kg/injection, schedule: Q01DX005 (ip), vehicle: water, evaluated on day 75) was 132 % of control. The T/C (dose: 24.0 mg/kg/injection, schedule: Q01DX005 (ip), vehicle: water, evaluated on day 5) was 136 % of control, the T/C (dose: 24.0 mg/kg/injection, schedule: Q01DX005 (ip), vehicle: water, evaluated on day 75) was 136 % of control and the T/C (dose: 27.5 mg/kg/injection, schedule: Q01DX005 (ip), vehicle: water, evaluated on day 5) was 149 % of control. For the same compound, the T/C (dose: 27.5 mg/kg/injection, schedule: Q01DX005 (ip), vehicle: water, evaluated on day 75) was 149 % of control, the T/C (dose: 31.5 mg/kg/injection, schedule: Q01DX005 (ip), vehicle: water, evaluated on day 5) was 141 % of control and the T/C (dose: 31.5 mg/kg/injection, schedule: Q01DX005 (ip), vehicle: water, evaluated on day 75) was 141 % of control. The T/C (dose: 40.0 mg/kg/injection, schedule: Q01DX005 (ip), vehicle: water, evaluated on day 5) was 147 % of control and the T/C (dose: 40.0 mg/kg/injection, schedule: Q01DX005 (ip), vehicle: water, evaluated on day 75) was 147 % of control.
`C[C@]12C=CC(=O)C=C1CC[C@@H]1[C@@H]2C(=O)C[C@@]2(C)[C@H]1CC[C@]2(O)C(=O)CO` was tested, and the T/C (dose: 20.0 mg/kg/injection, schedule: Q01DX009 (ip), vehicle: saline) was 126 % of control.
With `C[C@@H]1C[C@@H]([C@H](O)CC2CC(=O)NC(=O)C2)C(=O)[C@@H](C)C1` the survivor count (dose: 40.0 mg/kg/injection, schedule: Q01DX009 (ip), vehicle: water) was 8 of 8 and the survivor count (dose: 80.0 mg/kg/injection, schedule: Q01DX009 (ip), vehicle: water) was 3 of 8.
For `O=C(O)c1c(Cl)c(Cl)c(Cl)c(Cl)c1-c1c2cc(I)c(=O)c(I)c-2oc2c(I)c(O)c(I)cc12`, the survivor count (dose: 16.0 mg/kg/injection, schedule: Q01DX009 (ip), vehicle: water) was 8 of 8, the survivor count [4] was 8 of 8 and the survivor count [5] was 7 of 8. The survivor count [6] was 0 of 8.
In the case of `O=C(O)CCCc1ccc(N(CCCl)CCCl)cc1`, the survivor count (dose: 0.75 mg/kg/injection, schedule: Q01DX009 (ip), vehicle: saline) is reported as 8 of 8, the T/C (dose: 3.0 mg/kg/injection, schedule: Q01DX009 (ip), vehicle: saline) is reported as 128 % of control and the T/C (dose: 6.0 mg/kg/injection, schedule: Q01DX009 (ip), vehicle: saline) is reported as 131 % of control.
For `CCN(CC)CCOc1ccc2c(c1)C(=O)c1cc(OCCN(CC)CC)ccc1-2`, the T/C (dose: 100.0 mg/kg/injection, schedule: Q04DX009 (ip), vehicle: Klucel (hydroxypropylcellulose) (HPC)) was 126 % of control and the survivor count (dose: 150.0 mg/kg/injection, schedule: Q04DX009 (ip), vehicle: Klucel (hydroxypropylcellulose) (HPC)) was 7 of 8.
`O=C1OC(C(O)CO)C(O)=C1O` (centres undefined) was tested, and the survivor count (dose: 3200.0 mg/kg/injection, schedule: Q01DX009 (ip), vehicle: other) was 8 of 8.
`COc1cc2c(c(OC)c1OC)-c1ccc(OC)c(=O)cc1[C@@H](NC(C)=O)CC2` was tested, and the survivor count (dose: 0.03 mg/kg/injection, schedule: Q01DX009 (ip), vehicle: water) was 8 of 8 and the T/C (dose: 0.48 mg/kg/injection, schedule: Q01DX009 (ip), vehicle: water) was 127 % of control.
For `NC(=O)c1ncn(C2OC(CO)C(O)C2O)n1` (centres undefined), the survivor count [5] was 8 of 8.
With `C/C(=N/N=C(N)N)c1ccc(NC(=O)Nc2ccc(/C(C)=N/N=C(N)N)cc2)cc1` the survivor count [4] was 6 of 8 and the survivor count [5] was 6 of 8.
In the case of `CC1=C(/C=C/C(C)=C/C=C/C(C)=C/C(=O)O)C(C)(C)CCC1`, the survivor count (dose: 100.0 mg/kg/injection, schedule: Q01DX009 (ip), vehicle: other) is reported as 7 of 8 and the survivor count (dose: 200.0 mg/kg/injection, schedule: Q01DX009 (ip), vehicle: other) is reported as 8 of 8.
For `Nc1n[nH]c(N)n1`, the T/C [6] was 131 % of control.
